{"source": "PubChem BioAssay AID743121 (NCATS, 2013)", "aim": "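Partners whose loss is lethal together with topoisomerase I blockade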 (primary screen)", "system": "MDA-MB-231 cells, a human breast cancer line", "reagents": "single siRNA against human genes, 20 nM siRNA (0.8 pmol per well)", "time to read-out": "120 h (drug added 48 h after transfection, read 72 h later)", "conditions": "camptothecin 20 nM (about EC30) for 72 h; vehicle 0.1% DMSO in parallel plates", "measurement": "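CellTiter-Glo ATP signal, scaled to control siRNA as percent viability; sensitisation given as log2 of untreated divided by camptothecin-treated viability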", "direction": "log2 vehicle/camptothecin viability: higher = stronger sensitisation to camptothecin; viability with camptothecin: higher = more viable cells", "rule for the call": "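Active genes have an RSA gene-level p-value below 0.001, computed from the ratios of their separate siRNAs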", "note": "Shown is one part, drawn at random, of about 26,000 reagents tested. Over the whole deposit, 167 (0.63%) were called active. 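Calls are per gene from RSA p-values that are not deposited; an individual active-marked siRNA can sensitise only weakly.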 Reagents against one gene are numbered here. Not all columns of the deposit are shown."}
{"gene":"BEGAIN","reagent no.":1,"log2 vehicle/camptothecin viability":0.402,"viability with camptothecin (% of control)":58.1,"activity call":"inactive"}
{"gene":"BEGAIN","reagent no.":2,"log2 vehicle/camptothecin viability":-0.327,"viability with camptothecin (% of control)":49,"activity call":"inactive"}
{"gene":"BEGAIN","reagent no.":3,"log2 vehicle/camptothecin viability":-0.0122,"viability with camptothecin (% of control)":80.1,"activity call":"inactive"}
{"gene":"BEGAIN","reagent no.":4,"log2 vehicle/camptothecin viability":0.149,"viability with camptothecin (% of control)":83,"activity call":"inactive"}
{"gene":"INTS6","reagent no.":1,"log2 vehicle/camptothecin viability":-0.07,"viability with camptothecin (% of control)":47.6,"activity call":"inactive"}
{"gene":"INTS6","reagent no.":2,"log2 vehicle/camptothecin viability":0.00175,"viability with camptothecin (% of control)":57.4,"activity call":"inactive"}
{"gene":"INTS6","reagent no.":3,"log2 vehicle/camptothecin viability":-0.348,"viability with camptothecin (% of control)":59.1,"activity call":"inactive"}
{"gene":"INTS6","reagent no.":4,"log2 vehicle/camptothecin viability":-0.209,"viability with camptothecin (% of control)":74.8,"activity call":"inactive"}
{"gene":"RELN","reagent no.":1,"log2 vehicle/camptothecin viability":0.173,"viability with camptothecin (% of control)":84.7,"activity call":"inactive"}
{"gene":"RELN","reagent no.":2,"log2 vehicle/camptothecin viability":-0.278,"viability with camptothecin (% of control)":68.6,"activity call":"inactive"}
{"gene":"RELN","reagent no.":3,"log2 vehicle/camptothecin viability":-0.318,"viability with camptothecin (% of control)":112,"activity call":"inactive"}
{"gene":"RELN","reagent no.":4,"log2 vehicle/camptothecin viability":0.623,"viability with camptothecin (% of control)":47.2,"activity call":"inactive"}
{"gene":"CILK1","reagent no.":1,"log2 vehicle/camptothecin viability":-0.695,"viability with camptothecin (% of control)":85.4,"activity call":"inactive"}
{"gene":"CILK1","reagent no.":2,"log2 vehicle/camptothecin viability":-0.138,"viability with camptothecin (% of control)":85,"activity call":"inactive"}
{"gene":"CILK1","reagent no.":3,"log2 vehicle/camptothecin viability":-0.403,"viability with camptothecin (% of control)":104,"activity call":"inactive"}
{"gene":"CILK1","reagent no.":4,"log2 vehicle/camptothecin viability":0.124,"viability with camptothecin (% of control)":99.1,"activity call":"inactive"}
{"gene":"TSSK1B","reagent no.":1,"log2 vehicle/camptothecin viability":-0.239,"viability with camptothecin (% of control)":77.7,"activity call":"inactive"}
{"gene":"TSSK1B","reagent no.":2,"log2 vehicle/camptothecin viability":-0.335,"viability with camptothecin (% of control)":134,"activity call":"inactive"}
{"gene":"TSSK1B","reagent no.":3,"log2 vehicle/camptothecin viability":-0.426,"viability with camptothecin (% of control)":114,"activity call":"inactive"}
{"gene":"TSSK1B","reagent no.":4,"log2 vehicle/camptothecin viability":-0.0148,"viability with camptothecin (% of control)":94,"activity call":"inactive"}
{"gene":"CNGB3","reagent no.":1,"log2 vehicle/camptothecin viability":-0.308,"viability with camptothecin (% of control)":42.9,"activity call":"inactive"}
{"gene":"CNGB3","reagent no.":2,"log2 vehicle/camptothecin viability":0.368,"viability with camptothecin (% of control)":57.9,"activity call":"inactive"}
{"gene":"CNGB3","reagent no.":3,"log2 vehicle/camptothecin viability":0.222,"viability with camptothecin (% of control)":43.6,"activity call":"inactive"}
{"gene":"CNGB3","reagent no.":4,"log2 vehicle/camptothecin viability":0.166,"viability with camptothecin (% of control)":72.4,"activity call":"inactive"}

Taken from above:
BEGAIN #3, viability with camptothecin (% of control): 80.1
Under “activity call”, BEGAIN #4 is entered as inactive
Result for CILK1 #3 under “activity call”: inactive
CNGB3 #2, viability with camptothecin (% of control) → 57.9
